This note sets out measurements from ChEMBL document CHEMBL4296182, “CO-ADD screening of NIH NCI Diversity Set V”.

Some of the results follow. Measured potencies and affinities stand elsewhere.

What is called Inhibition is the drop in the measured response relative to a control, in per cent.

The test has as its system Pseudomonas aeruginosa. The settings on record: Concentration 20 uM; ASSAY_TEST Inhibition of Bacterial Growth; detection method Absorption (OD600); MEDIA CAMHB; plate type 384well; NBS; CORNING #3640; time 18 hr.
As for `Cc1ccc2c(c1)sc1nncn12`, the Inhibition is reported as 13.54%.

Regarding `Cc1ccc2c(c1)c1ccc3c(c1n2C)C(=O)C=CC3=O`, the Inhibition is listed as 16.2%.

In the case of `Cc1nc2ccc(Cl)cn2c1[N+](=O)[O-]`, the Inhibition is reported as -8.97%.

Consider `Cn1c(=O)c2c(ncn2CCOC(=O)C(C)(C)Oc2ccc(Cl)cc2)n(C)c1=O` [THEOFIBRATE], for which the Inhibition came to 20.89%.

Regarding `CNC(=O)OCN1C(=O)C2CC=CCC2C1=O` (centres undefined), the Inhibition is recorded as 11.73%.

With `Cc1ccc(NC(=O)N2CCN(C)CC2)cc1NC(=O)N1CCN(C)CC1`, the Inhibition is -13.82%.

As for `COC1OC2COC(c3ccccc3)OC2C(=O)C1NC(=O)c1ccccc1` (centres undefined), the Inhibition was determined as 28.99%.

As to `Cn1c(=O)c2c(nc(OCCc3ccccc3)n2C)n(C)c1=O`, the Inhibition worked out at 19.39%.

On to `COc1cc(/C=C2\CCOC2=O)cc(OC)c1OC`, for which the Inhibition came to 15.95%.

As to `C1CCc2nc3c(nc2C1)CCCC3`, the Inhibition stood at 19.99%.

As for `O=[N+]([O-])c1ccc(Sc2ncccn2)c([N+](=O)[O-])c1`, the Inhibition is on record as 10.12%.

As to `Oc1ccnc(Nc2ccc(Cl)cc2)n1`, the Inhibition is recorded as 19.48%.

For `Brc1csc2ncccc12`, the Inhibition is recorded as -2.37%.

Regarding `c1ccc(-c2nc3ccccc3s2)nc1`, the Inhibition was found to be 22.83%.

As to `CC1(C)OC2C(CO)OC(n3cnc4c(S)ncnc43)C2O1` (centres undefined), the Inhibition amounted to 21.23%.

For the compound `Cc1c(O)cnc2nn(-c3ccccc3)c(=N)n12`, the Inhibition worked out at 8.14%.

On to `CN(C)Cc1c[nH]c2nccnc12`, for which the Inhibition amounted to 13.45%.

Turning to `CC(C)(C)C1=NN=C2c3ccccc3C(=O)C21` (centres undefined), the Inhibition is on record as -21.54%.

As for `C=CCNC(=S)N1CCN(c2ccccc2Cl)CC1`, the Inhibition was -17.36%.

With `CCCCNc1nc(N)ncc1[N+](=O)[O-]`, the Inhibition was 15.58%.

For `CC(=O)OCC1OC(COC(C)=O)(c2ccc(C)cc2)C(OC(C)=O)C1OC(C)=O` (centres undefined), the Inhibition is 23.48%.

With `C#CC1(N2CCCCC2)CCCCC1`, the Inhibition is recorded as 17.52%.

For the compound `CCN(c1ccccc1)c1nc(Cl)nc2c1cnn2C`, the Inhibition is reported as 6.67%.

Regarding `Cc1cc(=O)[nH]c(N)n1`, the Inhibition is -2.41%.

Take `CNC(=O)c1nn(C)c(=O)[nH]c1=O`: the Inhibition was determined as 26.23%.

Regarding `CC(C)COC(=O)NC1c2ccccc2Oc2ccccc21`, the Inhibition turned out to be 6.4%.

Turning to `CCC1=C(c2ccc(OC)cc2)CCC(C(=O)O)C1C` (centres undefined), the Inhibition is listed as -11.41%.

As to `CCc1cccc2[nH]c3cc([N+](=O)[O-])ccc3c12`, the Inhibition was -5.38%.

On to `Nc1ncnc2c1ncn2C1OC(CO)C(O)C1N` (centres undefined), for which the Inhibition is on record as 4.31%.

Regarding `Oc1c(Cl)cc(Cl)cc1C1Nc2ccccc2-n2cccc21` (centres undefined), the Inhibition turned out to be 12.23%.

`CCC(C)(C)c1ccc(Oc2cccc(C(=O)O)c2)cc1`: the Inhibition is given as -11.05%.

Consider `Cl/N=C1/C=CC=C/C1=N/Cl`, for which the Inhibition is -1.05%.

As to `CC(C)N(C(=O)c1cccc([N+](=O)[O-])c1)C(C)C`, the Inhibition is given as -6.21%.

For the compound `C[C@H](CCC(=O)O)[C@H]1CC[C@@]2(C)[C@@H]3C(=O)C[C@H]4C(C)(C)[C@@H](O)CC[C@]4(C)[C@H]3C(=O)C[C@]12C`, the Inhibition is -11.48%.

Consider `O=C1c2ccccc2C(=O)c2c(Nc3ccc(CCO)cc3)ccc(O)c21`, for which the Inhibition is listed as 27.65%.

`CCCCNCC1CCCO1` (centres undefined): the Inhibition is given as 24.27%.

For the compound `Cc1nnc(Cc2ccccc2)c2[nH]nc(C)c12`, the Inhibition is listed as 1.1%.

Regarding `Oc1ccccc1-c1nnco1` [FENADIAZOLE], the Inhibition is reported as 12.87%.

`CS(=O)(=O)O.OC(c1cc(C(F)(F)F)nc2c(Cl)cc(Cl)cc12)C1CCCCN1` (centres undefined): the Inhibition was determined as 29.15%.

On to `c1ccc(-n2nnnc2-c2cccc3ccccc23)cc1`, for which the Inhibition is given as -7.64%.

For `Oc1ccc(Cc2ccccc2Cl)c(O)c1`, the Inhibition was determined as 12.49%.

Consider `Oc1ccc2c(ccc3[nH]cnc32)c1`, for which the Inhibition came out at 26.82%.

On to `O=C(O)c1cc(N2C(=O)C=CC2=O)cc(N2C(=O)C=CC2=O)c1`, for which the Inhibition worked out at 5.71%.

On to `CCOc1ccc(/C=C2\CCc3ccccc3C2=O)cc1`, for which the Inhibition was -6.14%.

Take `Cc1csc(/N=N/c2ccc(N(C)C)cc2)[n+]1[O-]`: the Inhibition came to 12.68%.

Take `Cc1nnsc1C(=O)NCc1c(F)cccc1Cl`: the Inhibition is reported as -8.15%.

With `CN(/N=N/c1[nH]cnc1C(=O)NN)C1CCCCC1`, the Inhibition is given as -5.81%.

In the case of `NCC(=O)Nc1ccc(Cl)cc1C(=O)c1ccc[nH]1`, the Inhibition was determined as 8.94%.

On to `c1ccc2c(c1)nnn2-c1ccncc1`, for which the Inhibition is on record as -19.2%.

As to `CC(=O)Nc1ccc2cc3ccc(NC(C)=O)cc3nc2c1`, the Inhibition turned out to be 10.98%.

Turning to `O=C(O)c1ccccc1C(=O)Nc1cccc([N+](=O)[O-])c1`, the Inhibition stood at 0.82%.

For the compound `Nc1ccccc1Sc1cc(Cl)nnc1Cl`, the Inhibition amounted to 14.25%.

For `CCc1nc(NC(C)(C)C)c2cnn(-c3ccccc3)c2n1`, the Inhibition is -1.88%.

Consider `O=c1[nH]c(=S)c2nc(S)n(-c3ccccc3)c2[nH]1`, for which the Inhibition was 7.51%.

For `Nc1[nH]nc2nc(-c3ccccc3)nc(O)c12`, the Inhibition worked out at 1.53%.

As for `O=C(CC1C=Cc2ccccc2N1C(=O)c1ccccc1)c1ccccc1` (centres undefined), the Inhibition stood at 25.39%.

For the compound `c1ccc(-c2nnc3oc(-c4cccs4)nn23)cc1`, the Inhibition is listed as 13.73%.

Take `CCOP(=O)(OCC)/C(C#N)=C/c1ccc([N+](=O)[O-])cc1`: the Inhibition stood at 22.05%.

`Clc1c(Cl)c(Cl)c2[nH]nnc2c1Cl`: the Inhibition was found to be 3.68%.

Turning to `COc1cc(/N=N/c2cccc(S(N)(=O)=O)c2)c2ccccc2c1N`, the Inhibition amounted to 26.1%.

In the case of `COc1cc(C(=O)C(=O)c2cc(OC)c(O)c(OC)c2)cc(OC)c1O`, the Inhibition came to 9%.

`Cc1cc(O)c(C(C)C)cc1NC(=O)Nc1cccc2ccccc12`: the Inhibition is on record as 7.81%.

Turning to `O=P(O)(O)c1cc(-c2ccccc2)oc1-c1ccccc1`, the Inhibition was found to be 6.31%.

As to `Cc1nc(NCc2ccccc2)c2cc[nH]c2n1` [ROLODINE], the Inhibition worked out at 4.39%.

As to `NC(=O)c1ccccc1NC(=O)c1ccccc1Cl`, the Inhibition worked out at 10.71%.

On to `COc1ccc(Nc2cc(C)nc(N)n2)cc1`, for which the Inhibition is given as -8.13%.

For `COc1ccc2c3c([nH]c2c1)[C@H]1C[C@H]2[C@H](C[C@@H](O)[C@H](OC)[C@H]2C(=O)O)CN1CC3`, the Inhibition was determined as 8.44%.

Take `CNc1ncnc2c1cnn2C1CCCCO1` (centres undefined): the Inhibition is recorded as 17.87%.

For `Cc1cc2c(cc1C)NC1=C(O)C(c3cccc(O)c3)OC1=N2` (centres undefined), the Inhibition amounted to 4.58%.

In the case of `COc1ccc(C(=O)Oc2cccnc2O)cc1`, the Inhibition is -7.26%.

Turning to `Oc1ccc(/C=C\c2cnccn2)cc1`, the Inhibition worked out at 25.8%.

Regarding `COc1cc2c(NCCCCCO)ncnc2c(OC)c1OC`, the Inhibition is 24.66%.

As to `O=[N+]([O-])c1cc(-c2cccnc2)[nH]n1`, the Inhibition came out at 10.61%.

As to `CC1(C)N=C(N)N=C(N)N1c1cccc(CN)c1.CCS(=O)(=O)O`, the Inhibition was determined as 19.75%.

For `Cc1nnc(-n2cccc2)s1`, the Inhibition is recorded as 2.93%.

With `Cn1c(N)c(/N=N/c2ccc(S(N)(=O)=O)cc2)c(=O)n(C)c1=O`, the Inhibition worked out at 12.52%.

For `NC1=NC(c2ccc(Cl)cc2)N(c2ccc(S(N)(=O)=O)cc2)C(N)=N1` (centres undefined), the Inhibition was 15.92%.

As for `CSc1nnc(-c2cccs2)[nH]1`, the Inhibition is listed as 14.85%.

Regarding `C#CCSc1nnnn1-c1ccc(Br)c(C)c1`, the Inhibition is given as 24.75%.

In the case of `Cc1ccn(C)c(=N)c1`, the Inhibition was determined as 15.16%.

Take `Nc1n[nH]c(Nc2ccccc2)n1`: the Inhibition came out at 11.15%.

With `O=C(O)C1C2OC3C(OC(=O)C31)C2Br` (centres undefined), the Inhibition is 8.37%.

`Clc1ccc(/C=C/c2nc(Cl)c(-c3ccc(Cl)cc3)c(Cl)n2)cc1`: the Inhibition is 27.09%.

On to `COc1ccc2c(n1)Sc1nc3ccccc3nc1N2`, for which the Inhibition was 4.87%.

As for `Cc1nccnc1Sc1ccccc1`, the Inhibition is listed as -0.18%.

In the case of `[O-][n+]1ccc(CC(O)(C(F)(F)F)C(F)(F)F)cc1`, the Inhibition was -7.4%.

Consider `Sc1nc2ccccc2n2cccc12`, for which the Inhibition is reported as -3.39%.

Regarding `NNC(=O)CNC(=O)Nc1nnc(S)s1`, the Inhibition is recorded as -0.41%.

On to `CN(C)S(=O)(=O)c1ccc(N)c([N+](=O)[O-])c1`, for which the Inhibition amounted to 3.26%.

With `CCC(C)N=C(S)Nc1ccccc1` (centres undefined), the Inhibition amounted to 5.43%.

Take `S=C1SCN(CCc2ccccc2)CN1CCc1ccccc1`: the Inhibition stood at 10.02%.

In the case of `O=C(Nc1ccc(Cl)cc1)c1cc2c(cc1O)[nH]c1ccccc12`, the Inhibition is -10.65%.

As for `CCOc1ccc2sc(NS(=O)(=O)c3ccc(N)cc3)nc2c1`, the Inhibition is 12.86%.

With `O=C1OCC/C1=C\NCCCCCCCCN/C=C1\CCOC1=O`, the Inhibition was 20.27%.

Regarding `CCCCOc1nc2c(c(=O)n(C)c(=O)n2C)n1C`, the Inhibition worked out at 7%.

With `NCc1c(O)ccc2ccccc12`, the Inhibition is given as -10.61%.

As for `O=c1oc2c(cc1O)oc(=O)c1cc(O)c(O)c(O)c12`, the Inhibition turned out to be 3.75%.

On to `Cc1nc(O)c2c3c(sc2n1)CCCC3`, for which the Inhibition is 7.72%.

For the compound `CCNc1nn2ccccc2c1/C=C(/C#N)C(=O)OCC`, the Inhibition is reported as 15.35%.

On to `COc1ccc(C2=NC(=O)NC2c2ccc(OC)cc2)cc1` (centres undefined), for which the Inhibition is listed as 2.31%.

Take `c1cc2c3c(cccc3c1)NC1(CCC3(CC1)Nc1cccc4cccc(c14)N3)N2`: the Inhibition came out at 33.82%.

In the case of `O=C(Nc1cccc([N+](=O)[O-])c1)c1ccc2ccccc2c1O`, the Inhibition worked out at 13.88%.

In the case of `Cc1cc2cc3n(c2nn1)N=C(Cl)CC3`, the Inhibition came to 8.98%.

Take `Cc1cc(=O)[nH]/c(=N/N=C2/CCCCC2C)[nH]1` (centres undefined): the Inhibition is 14.92%.

Regarding `c1ccc(-n2c3ccccc3c3ccccc32)cc1`, the Inhibition is listed as 11.31%.

As for `Oc1ccc(N/C(S)=N/c2ccccc2)cc1`, the Inhibition is given as -9.32%.

With `CC(C)(C)c1ccc(OCC(=O)O)cc1`, the Inhibition worked out at 13.64%.

Regarding `CC12CCC(C(NC(=S)NN)C1=O)C2(C)C` (centres undefined), the Inhibition is 8.97%.

Regarding `Cc1cnc2c(N)cc(C)c(C)c2c1`, the Inhibition is reported as 9.68%.

As for `O=C(Nc1cccc2ccccc12)c1cc2c(cc1Br)OCO2`, the Inhibition is recorded as 31.1%.

For the compound `Cn1ncc2c(Nc3ccccc3Cl)nc(Cl)nc21`, the Inhibition is recorded as 5.69%.

Turning to `Cc1nc2ccccc2nc1NS(=O)(=O)c1ccc(N)cc1`, the Inhibition is -3.19%.

`O=C1c2cc([N+](=O)[O-])ccc2-c2cc(Br)c(NC(=NO)C(F)(F)F)cc21`: the Inhibition worked out at 29.81%.

Regarding `O=C(Nc1cccc([N+](=O)[O-])c1)c1cccc(C(=O)Nc2cccc([N+](=O)[O-])c2)c1`, the Inhibition is -10.43%.
